{"source": "patent US9505725B2", "about": "“Crystalline and mesomorphous forms of an AKT inhibiting pyrimidinyl-cyclopentane compound, compositions and methods thereof” (priority 2012, dated 2016)", "test": "Maximum amount that could be dissolved in Capryol 90", "type": "physicochemical", "conditions": "model compounds of high or poor aqueous solubility", "note": "Some results were stated once for a whole list of compounds, not compound by compound. At least one structure is not confirmed: it was looked up by name or label, or the drawing left a doubt."}
{"smiles": "CC(=O)Nc1ccc(O)cc1", "note": "[acetaminophenol]", "values": [{"measurement": "maximum concentration that could be dissolved in Capryol 90", "value": "≤ 10", "unit": "% w/w"}]}
